Source: patent US20090215044A1, “Receptor in Dendritic Cells” (priority 2005, published 2009)
At least one compound was matched to its structure with a doubt left.

What was measured:
[1] = test system: LPS-activated dendritic cells; assay: Cytokine production by LPS-activated monocyte-derived dendritic cells treated with GPBAR1 agonists
[2] = test system: co-cultures of dendritic cells and allogeneic CD4+ T cells; assay: Cytokine production in co-cultures of GPBAR1 agonist treated dendritic cells and allogeneic CD4+ T cells; details: co-culture 72 hours in the presence of 10 μM TLCA
[3] = TLCA during differentiation from monocytes, after activation by LPS, supernatants at 48 hours

C[C@H](CCC(=O)NCCS(=O)(=O)O)[C@H]1CC[C@H]2[C@@H]3CC[C@@H]4C[C@H](O)CC[C@]4(C)[C@H]3CC[C@]12C [TLCA, taurolithocholic acid]
production of IL-10 and other cytokines [1, 3]: not affected | production of IL-12p70 [1, 3]: specifically and dose-dependently inhibits | production of TNF-α [1, 3]: specifically and dose-dependently inhibits | production of IL-12p40 ([1]; dendritic cells activated by LPS, ELISA): dose dependently inhibited | IFNγ production [2]: drastically inhibited | IL-4 production [2]: is not
